Experimental data from the supplement of paper PMC10849652.
The other results are listed elsewhere or left out.

The chains behind the UniProt entries cited, without tags or fusion partners. Where a name states a change or a piece, a line headed by the entry shows the natural chain unless it says otherwise.
UniProt Q9Y5U8: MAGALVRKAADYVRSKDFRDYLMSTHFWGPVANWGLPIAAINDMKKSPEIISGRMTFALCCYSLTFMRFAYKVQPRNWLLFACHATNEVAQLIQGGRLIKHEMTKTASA
UniProt Q8N3R9: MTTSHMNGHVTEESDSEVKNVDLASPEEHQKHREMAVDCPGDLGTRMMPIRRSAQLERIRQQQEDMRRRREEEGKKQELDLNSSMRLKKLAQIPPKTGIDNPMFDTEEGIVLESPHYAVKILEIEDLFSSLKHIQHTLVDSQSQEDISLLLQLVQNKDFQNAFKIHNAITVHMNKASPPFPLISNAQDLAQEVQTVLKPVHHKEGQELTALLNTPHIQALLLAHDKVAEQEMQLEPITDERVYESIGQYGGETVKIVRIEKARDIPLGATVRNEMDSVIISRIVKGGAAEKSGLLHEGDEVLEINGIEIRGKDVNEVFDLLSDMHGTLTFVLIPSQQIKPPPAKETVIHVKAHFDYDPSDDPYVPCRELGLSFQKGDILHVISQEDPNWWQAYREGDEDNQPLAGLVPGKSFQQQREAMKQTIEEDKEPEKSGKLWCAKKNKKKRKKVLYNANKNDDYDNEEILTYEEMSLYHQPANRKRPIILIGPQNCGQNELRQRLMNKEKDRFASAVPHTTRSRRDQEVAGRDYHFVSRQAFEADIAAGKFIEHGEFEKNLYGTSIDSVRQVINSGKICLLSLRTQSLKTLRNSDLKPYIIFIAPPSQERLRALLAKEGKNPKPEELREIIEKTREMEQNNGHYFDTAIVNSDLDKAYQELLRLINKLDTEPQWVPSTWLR
UniProt Q9NPJ1: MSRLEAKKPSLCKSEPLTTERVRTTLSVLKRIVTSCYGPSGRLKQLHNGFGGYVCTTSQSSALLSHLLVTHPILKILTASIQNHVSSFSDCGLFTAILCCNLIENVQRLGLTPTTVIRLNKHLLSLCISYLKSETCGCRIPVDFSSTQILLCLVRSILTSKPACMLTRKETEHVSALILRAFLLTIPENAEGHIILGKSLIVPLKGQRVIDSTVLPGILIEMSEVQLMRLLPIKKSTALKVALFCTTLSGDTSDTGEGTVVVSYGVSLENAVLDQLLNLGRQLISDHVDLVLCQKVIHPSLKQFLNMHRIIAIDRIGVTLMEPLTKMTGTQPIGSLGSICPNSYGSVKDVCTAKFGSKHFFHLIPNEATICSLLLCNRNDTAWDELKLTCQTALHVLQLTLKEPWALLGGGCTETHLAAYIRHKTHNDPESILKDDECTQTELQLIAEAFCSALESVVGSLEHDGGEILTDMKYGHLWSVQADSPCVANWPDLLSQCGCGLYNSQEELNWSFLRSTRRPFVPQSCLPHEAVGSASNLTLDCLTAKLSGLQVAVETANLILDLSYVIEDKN
UniProt O95396: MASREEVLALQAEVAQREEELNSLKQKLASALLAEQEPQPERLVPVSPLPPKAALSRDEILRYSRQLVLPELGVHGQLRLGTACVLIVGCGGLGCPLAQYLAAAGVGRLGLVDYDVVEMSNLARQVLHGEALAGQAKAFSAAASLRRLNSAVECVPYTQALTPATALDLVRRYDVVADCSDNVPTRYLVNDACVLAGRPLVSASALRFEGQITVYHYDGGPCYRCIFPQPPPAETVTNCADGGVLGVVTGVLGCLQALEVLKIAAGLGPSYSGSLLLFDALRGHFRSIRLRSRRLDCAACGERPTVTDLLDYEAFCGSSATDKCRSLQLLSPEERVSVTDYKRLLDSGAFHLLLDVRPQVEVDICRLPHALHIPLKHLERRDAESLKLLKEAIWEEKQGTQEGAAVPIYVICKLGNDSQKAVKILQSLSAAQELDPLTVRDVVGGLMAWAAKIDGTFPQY
UniProt Q8N344: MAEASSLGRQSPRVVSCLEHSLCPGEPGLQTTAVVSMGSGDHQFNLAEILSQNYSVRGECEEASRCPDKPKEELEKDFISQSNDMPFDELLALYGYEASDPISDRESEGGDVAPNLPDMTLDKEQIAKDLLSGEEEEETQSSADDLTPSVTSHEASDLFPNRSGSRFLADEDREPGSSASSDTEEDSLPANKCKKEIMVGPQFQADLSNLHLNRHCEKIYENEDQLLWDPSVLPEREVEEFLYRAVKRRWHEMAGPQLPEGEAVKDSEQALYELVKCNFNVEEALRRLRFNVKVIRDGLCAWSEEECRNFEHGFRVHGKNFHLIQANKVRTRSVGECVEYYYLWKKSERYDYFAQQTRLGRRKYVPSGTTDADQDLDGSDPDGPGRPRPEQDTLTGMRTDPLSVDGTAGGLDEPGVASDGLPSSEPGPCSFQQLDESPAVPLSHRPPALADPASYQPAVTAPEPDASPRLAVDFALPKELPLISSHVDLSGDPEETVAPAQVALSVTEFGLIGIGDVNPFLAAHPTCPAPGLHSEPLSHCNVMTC
UniProt Q9HBH9: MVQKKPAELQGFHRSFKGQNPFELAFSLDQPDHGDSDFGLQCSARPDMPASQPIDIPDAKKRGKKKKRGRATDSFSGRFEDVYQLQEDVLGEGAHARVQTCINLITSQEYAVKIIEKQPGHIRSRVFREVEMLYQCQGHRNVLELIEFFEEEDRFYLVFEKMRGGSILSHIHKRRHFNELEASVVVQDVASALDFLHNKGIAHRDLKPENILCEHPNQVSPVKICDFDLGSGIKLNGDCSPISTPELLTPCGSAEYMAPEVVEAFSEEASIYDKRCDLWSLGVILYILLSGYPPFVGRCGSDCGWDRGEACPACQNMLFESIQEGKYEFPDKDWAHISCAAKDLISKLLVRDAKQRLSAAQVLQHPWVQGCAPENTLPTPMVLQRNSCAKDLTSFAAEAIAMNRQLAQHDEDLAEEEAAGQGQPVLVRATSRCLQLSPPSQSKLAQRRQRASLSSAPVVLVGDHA

Assays:
Assay in all cases: log2 fold change, soluble protein after heating vs DMSO (PISA); higher = thermal stabilisation; K562 lysate, 10 uM; active = over 0.2 and 3.5 SD of the protein, either way, in both replicates (recomputed)
lapatinib = compound: CS(=O)(=O)CCNCc1ccc(-c2ccc3ncnc(Nc4ccc(OCc5cccc(F)c5)c(Cl)c4)c3c2)o1 [lapatinib]
Procedure, shortened: (§1)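 Pellets of K562 cells were dounce-homogenised in PBS pH 7.4 with 1 mM MgCl2, and the crude extract was held at 1 mg/mL protein for a 30 min treatment with 10 μM compound. Aliquots were heated for 3 min over 48°C-58°C and pooled before NP-40 was added to 0.5% at 4°C. The supernatant from 21,000xg for 90 min was quantified by TMTpro 16plex LC-MS/MS with channel sums equalised. Values are reported from duplicates as log-two fold change in thermal stability relative to solvent controls.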

pictilisib = compound: CS(=O)(=O)N1CCN(Cc2cc3nc(-c4cccc5[nH]ncc45)nc(N4CCOCC4)c3s2)CC1 [pictilisib]
Procedure, shortened: as §1

crizotinib = compound: C[C@@H](Oc1cc(-c2cnn(C3CCNCC3)c2)cnc1N)c1c(Cl)ccc(F)c1Cl [crizotinib]
Procedure, shortened: as §1

[1] = compound: C[C@H](C1=CC=C(C=C1)C(=O)NC2=C3C=CNC3=NC=C2)N
Procedure, shortened: as §1

duvelisib = compound: C[C@H](Nc1ncnc2nc[nH]c12)c1cc2cccc(Cl)c2c(=O)n1-c1ccccc1 [duvelisib]
Procedure, shortened: as §1

gandotinib = compound: Cc1cc(Nc2cc(CN3CCOCC3)c3nc(C)c(Cc4ccc(Cl)cc4F)n3n2)n[nH]1 [gandotinib]
Procedure, shortened: as §1

tozasertib = compound: Cc1cc(Nc2cc(N3CCN(C)CC3)nc(Sc3ccc(NC(=O)C4CC4)cc3)n2)n[nH]1 [tozasertib]
Procedure, shortened: as §1

doramapimod = compound: Cc1ccc(-n2nc(C(C)(C)C)cc2NC(=O)Nc2ccc(OCCN3CCOCC3)c3ccccc23)cc1 [doramapimod]
Procedure, shortened: as §1

bafetinib = compound: Cc1ccc(NC(=O)c2ccc(CN3CC[C@H](N(C)C)C3)c(C(F)(F)F)c2)cc1Nc1nccc(-c2cncnc2)n1 [bafetinib]
Procedure, shortened: as §1

[2] = compound: Cc1cccc(CC(=O)N2CCc3c2ccc(-c2cn(C)c4ncnc(N)c24)c3F)n1
Procedure, shortened: as §1

Measured: log2 fold change

MPC1 (UniProt Q9Y5U8)
inactive: lapatinib 0.032 | pictilisib 0.074 | crizotinib -0.002 | [1] 0.244 | duvelisib -0.058 | gandotinib -0.128 | tozasertib 0.042 | doramapimod -0.022 | bafetinib 0.004 | [2] -0.26

MPP5 (UniProt Q8N3R9)
inactive: pictilisib -0.091 | crizotinib -0.028 | [1] -0.003 | duvelisib -0.017 | gandotinib 0.01 | tozasertib -0.033 | doramapimod 0.115 | bafetinib -0.043 | [2] 0.099

MKKS (UniProt Q9NPJ1)
inactive: pictilisib -0.011 | [1] -0.046 | duvelisib -0.058 | gandotinib 0.13 | tozasertib -0.239 | bafetinib 0.074 | [2] -0.193

MOCS3 (UniProt O95396)
inactive: pictilisib 0.004 | crizotinib -0.127 | [1] -0.176 | duvelisib 0.009 | gandotinib 0.227 | tozasertib 0.027 | doramapimod 0.072 | bafetinib -0.054 | [2] 0.348

MIER2 (UniProt Q8N344)
inactive: pictilisib -0.025 | [1] -0.044 | duvelisib 0.028 | gandotinib 0.021 | tozasertib -0.201 | bafetinib -0.032 | [2] 0.004

MKNK2 (UniProt Q9HBH9)
inactive: duvelisib -0.016 | tozasertib -0.015
